Laboratory results taken from the supplement of paper PMC12823440, “Inhibitors supercharge kinase turnover through native proteolytic circuits” (Nature, 2025).
This is one part of the list. Hit calls seldom repeat between salt and free forms of one compound.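 In K562 cells expressing nanoluciferase-fused kinases, luminescence was recorded at 4 h intervals between 2 and 18 h, normalized as percent of control with DMSO at 100% and a positive control at 0%. A significant (2 sigma) signal drop marks a time point as decreased. The authors' rule for a hit is not shown and takes in more than the number of time points.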

Chains of the proteins cited; added tags and fusions are not shown. Lines headed by an entry give the natural chain unless they say otherwise; changes in a name come on top.
UniProt P07948: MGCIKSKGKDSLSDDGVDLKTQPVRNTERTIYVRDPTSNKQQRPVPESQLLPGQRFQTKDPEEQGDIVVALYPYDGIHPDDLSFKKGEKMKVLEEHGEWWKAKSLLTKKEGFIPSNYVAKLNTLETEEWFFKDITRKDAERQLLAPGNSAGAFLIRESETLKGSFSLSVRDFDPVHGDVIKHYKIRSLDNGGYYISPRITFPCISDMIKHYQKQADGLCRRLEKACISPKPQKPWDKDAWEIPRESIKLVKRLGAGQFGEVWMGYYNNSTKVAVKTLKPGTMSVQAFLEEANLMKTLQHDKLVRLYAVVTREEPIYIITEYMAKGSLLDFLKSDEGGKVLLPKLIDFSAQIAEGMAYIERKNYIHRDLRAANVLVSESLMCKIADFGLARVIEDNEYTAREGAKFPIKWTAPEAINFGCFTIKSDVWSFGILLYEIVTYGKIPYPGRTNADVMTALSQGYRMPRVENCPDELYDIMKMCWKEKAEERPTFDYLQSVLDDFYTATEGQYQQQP

Each compound was assayed against LYN (UniProt P07948) (assay: number of time points (of 5) at which kinase-Nluc abundance scored as decreased, DMSO-normalised (count); higher = more persistent destabilization). Details: K562; 2-18 h.

Row | Structure (SMILES) | number of time points
1 | CN1CCC(CNc2ccc3ncc(-c4cccc(OC(F)(F)F)c4)n3n2)CC1 (2.5 µM) | 0
2 | Cc1cc(C(=O)NC(C)(C)C)cc(C#Cc2ccc3c4c(oc3c2)C(C)(C)c2cc(NS(C)(=O)=O)ccc2C4=O)n1 (10 µM) | 0
3 | CC(O)(C#Cc1ccc2c(c1)N(c1nc(N)ncc1Cl)CC2)c1nccs1 (stereo not drawn) (2.5 µM) | 0
4 | COc1cc(-c2cc(-c3ccc(N4CCNCC4)cc3)cnc2C)cc(OC)c1OC (10 µM) | 0
5 | Cn1c(CNc2cccc(C(=O)NCc3ccccc3C(F)(F)F)c2)nnc1-c1ccncc1 (10 µM) | 0

These compounds were tested against MAP2K1 (UniProt Q02750) in the same assay as above. Details: K562; 2-18 h.

Row | Structure (SMILES) | number of time points
6 | O=Nc1c(-c2c(O)[nH]c3cc(Br)ccc23)[nH]c2ccccc12 [GSK 3 Inhibitor IX] (2.5 µM) | 0
7 | Cn1c2cc([S+](C)[O-])sc2c2cnn(Cc3cccc(N)c3)c(=O)c21 (stereo not drawn) (2.5 µM) | 0
8 | Cc1cc(-n2c(=O)ccc3c[nH]c4nccc-4c32)ccc1F (10 µM) | 0
9 | CCCn1/c(=N/C(=O)c2cccc(C(N)=O)c2)[nH]c2ccccc21 [Takinib] (10 µM) | 0
10 | CO[C@H]1C[C@@H]2CC[C@@H](C)[C@@](O)(O2)C(=O)C(=O)N2CCCC[C@H]2C(=O)O[C@H]([C@H](C)C[C@@H]2CC[C@@H](OCCO)[C@H](OC)C2)CC(=O)[C@H](C)/C=C(\C)[C@@H](O)[C@@H](OC)C(=O)[C@H](C)C[C@H](C)/C=C/C=C/C=C/1C [Everolimus] (10 µM) | 0
11 | Cc1cccc(-c2[nH]ncc2-c2ccnc3ccccc23)n1 (10 µM) | 0
12 | CC1(N)CCN(c2cccnc2NC(=O)c2nc(-c3ncccc3C(F)(F)F)cnc2N)CC1 [Darovasertib] (10 µM) | 0
13 | COc1cc2c(cc1Nc1ncc(C(N)=O)c(Nc3c(F)cccc3C(F)(F)F)n1)CN(C)CC2 (2.5 µM) | 0
14 | COc1cc2ncnc(Nc3ccc(O)c(Br)c3)c2cc1OC (10 µM) | 0
15 | Nc1nc2c(nc(Br)n2[C@@H]2O[C@@H]3COP(=O)(O)O[C@H]3[C@H]2O)c(=O)[nH]1 [8-Bromo-cGMP (sodium)] (10 µM) | 0
16 | O=c1c2c([nH]n1-c1nc3ccccc3s1)CCCC2 (10 µM) | 0
17 | COC(=O)Nc1ccc(-c2nc(N3CCOCC3)c3cnn(C4CCN(Cc5cccnc5)CC4)c3n2)cc1 (10 µM) | 0
18 | N[C@@H]1CCCN(c2c(/C=C3\SC(=O)NC3=O)cccc2-c2ccccc2)C1 (10 µM) | 0
19 | Nc1nc(N)c2nc(-c3cccc(O)c3)c(-c3cccc(O)c3)nc2n1 (10 µM) | 0
20 | Cn1ncc(NC(=O)c2nc(-c3c(F)cccc3F)sc2N)c1N1CC[C@@H](N)[C@H](F)CC1 (10 µM) | 0
21 | C=C1C(=O)[C@@]23[C@H](O)C[C@@H]4C(C)(C)C(=O)CC[C@@]4(C)[C@@H]2CC[C@@H]1[C@H]3O [Glaucocalyxin A] (2.5 µM) | 0
22 | O=C(NCCO)c1cc(C(=O)NCCO)cc(C(=O)NCCO)c1 (10 µM) | 0
23 | CCC(=O)Nc1cccc(Oc2nc(Nc3ccc(N4CCN(C)CC4)cc3OC)ncc2Cl)c1 (10 µM) | 0
24 | Cc1nn(C)cc1-c1nc2c(N3CCN(Cc4ccc(Cl)cc4)CC3)c(Cl)cnc2[nH]1 (10 µM) | 0

Row | Structure (SMILES) | number of time points
25 | CC(C)Oc1ccc(F)c(-c2cnc(N)c(C(=O)Nc3cnccc3N3CCC[C@@H](C(=O)O)C3)n2)c1 (2 µM) | 0
26 | Nc1ncc(C(=O)NC2CN(C(=O)C3CC3)C2)c2ccc(-c3cccc(F)c3)nc12 (2 µM) | 0
27 | O=C(ON=C1c2ccccc2-c2nc3ccccc3nc21)c1ccco1 (2.5 µM) | 0
28 | CC(C)=CC[C@@H](O)C1=CC(=O)c2c(O)ccc(O)c2C1=O [Shikonin] (10 µM) | 0
29 | COC(=O)Nc1ccc(-c2nc(N3CCOCC3)c3cnn(C4CCN(C(=O)OC)CC4)c3n2)cc1 (10 µM) | 0
30 | CNC(=O)c1ccc2c(c1)ncn2-c1ccc(CC(=O)OC(C)(C)C)cc1 (10 µM) | 0
31 | O=C1CC[C@H](NC(=O)Cc2ccccc2)C(=O)N1 [Antineoplaston A10] (10 µM) | 0
32 | COCCOCCc1c(C)c2cc(OC)c(O)c(C=O)c2oc1=O (10 µM) | 0
33 | Cc1ccc(C(=O)NC2CC2)cc1-n1ncc(C(=O)c2cccc(C#N)c2)c1N [Acumapimod] (10 µM) | 0
34 | O=C(NCCN1CCOCC1)Nc1nc2ccc(Sc3nnc4ccc(-c5ccc(F)cc5)nn34)cc2s1 (10 µM) | 0
35 | COc1cc(F)ccc1-c1ncnc(Nc2cccc(C[S@](C)(=N)=O)c2)n1 [Atuveciclib] (2.5 µM) | 0
36 | CCn1c(-c2nonc2N)nc2c(C#CC(C)(C)O)ncc(OC[C@H]3CCCNC3)c21 (10 µM) | 0
37 | O=c1[nH]ccc2nc(-c3ccc(CN4CCC(c5nc(-c6ccccn6)n[nH]5)CC4)cc3)c(-c3ccccc3)cc12 (10 µM) | 0
38 | COCCOc1ccc2c(c1)ncn2-c1ccc2cccc(N3CCC(N)CC3)c2n1 (10 µM) | 0
39 | CN1CCC(CNc2ccc3ncc(-c4cccc(OC(F)(F)F)c4)n3n2)CC1 (2.5 µM) | 0
40 | Cc1cc(C(=O)NC(C)(C)C)cc(C#Cc2ccc3c4c(oc3c2)C(C)(C)c2cc(NS(C)(=O)=O)ccc2C4=O)n1 (10 µM) | 0
41 | CC(O)(C#Cc1ccc2c(c1)N(c1nc(N)ncc1Cl)CC2)c1nccs1 (stereo not drawn) (2.5 µM) | 0
42 | COc1cc(-c2cc(-c3ccc(N4CCNCC4)cc3)cnc2C)cc(OC)c1OC (10 µM) | 0
43 | Cn1c(CNc2cccc(C(=O)NCc3ccccc3C(F)(F)F)c2)nnc1-c1ccncc1 (10 µM) | 0
